# Data taken from PMC11633198, “Vibrio cholerae CsrA controls ToxR levels by increasing the stability and translation of toxR mRNA”.
# Chains of the proteins cited; added tags and fusions are not shown.
# UniProt A5F9C0: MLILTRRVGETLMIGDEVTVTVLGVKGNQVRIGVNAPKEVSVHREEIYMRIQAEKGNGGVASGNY
# These are yes or no findings as the source states them, for the method shown. Some binding calls cover weakened binding; strength is not graded here.
# Target: Vibrio cholerae CsrA (Vibrio cholerae) (UniProt A5F9C0)
# Test: preliminary structural analyses (manuscript in preparation)
substance,measurement,value
Vibrio cholerae CsrA (from UniProt A5F9C0 1-65),binding,binds
